One assay has as its target cytochrome C (UniProt P99999). Kind of assay: single-cell plasmonic immunosandwich assay.
Assay [1] concerns the target cytochrome C (human (endogenous in HepG-2)) (UniProt P99999). The assay is described as follows: single-cell plasmonic immunosandwich assay.

By UniProt entry, the sequences of proteins in these tests, tags left out.
UniProt P99999: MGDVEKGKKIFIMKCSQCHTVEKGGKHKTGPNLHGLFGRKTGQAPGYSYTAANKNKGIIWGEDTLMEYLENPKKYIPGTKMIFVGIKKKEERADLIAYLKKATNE
UniProt O15392: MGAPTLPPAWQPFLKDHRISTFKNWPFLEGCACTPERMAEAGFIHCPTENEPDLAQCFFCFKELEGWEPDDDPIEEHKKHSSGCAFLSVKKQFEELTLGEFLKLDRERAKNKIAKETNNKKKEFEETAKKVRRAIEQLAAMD

Results are given in words; binding and its absence hold for the method and conditions named. Some binding calls cover weakened binding; strength is not graded here.

On to survivin (from UniProt O15392 1-142), for which the binding entry (with cytochrome C; in assay [1]) was “binds” in each case.

The values are drawn from publication doi:10.1101/663013.
